Values joined by “and” are separate entries in the source; they are usually repeats but may differ in a detail not shown here. Identical values can stand only once. The campaign covered roughly 360,000 compounds. About 7,500 (2.1%) were called active. This list was built around the results that the source calls inconclusive (neither active nor inactive); the mix of calls is not that of the screen. Calls come from the whole dose curve; as a rule, active = well fitted inhibition curve with a large enough effect; inconclusive = small, poorly fitted or top-dose-only effect, or effect the other way; inactive = flat fitted curve, though single readings scatter. Potencies beside an inconclusive call are fits to weak or partial responses and may not hold up.
Experiment: Nrf2 qHTS screen for inhibitors; note: nearly all actives have a fitted effect of over 60% in size
Conditions: A549 ARE-Fluc reporter, luciferase luminescence, 18-24 h; activity change, negative = inhibition: at 46 µM (top of the series)
Method in brief: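 A549 ARE_Fluc cells (5000/well, 5% FBS OPTI-MEM) pre-incubated 2 h, then treated with compounds 18-24 h at 37C/5% CO2 in concentration-response. CellTiter-Fluor viability read first; BugLite luciferase luminescence after 15 min at room temperature gives Nrf2 activity.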
% is set by controls: 0 for no effect and ±100 for the full control effect; potency is the fitted concentration of half-maximal effect.

SMILES	Potency	activity change, negative = inhibition
CC(=O)c1ccc(S(=O)(=O)N2CCN(c3ccccc3F)CC2)cc1	inconclusive: 11.6 µM [falling, partial curve]	
COCCn1c(Cc2ccccc2)nnc1SCC(=O)NC1CC1		inactive: -27.2%
CC1(c2ccc(Cl)cc2Cl)NC(=O)N(CC(=O)Nc2ccc3[nH]c(=O)[nH]c3c2)C1=O (stereo not given)	inconclusive: 13 µM [activator, partial curve]	
CN(CC(=O)Nc1nc2ccc(F)cc2s1)S(=O)(=O)c1ccc(Cl)cc1	inconclusive: 32.6 µM [falling, single point]	
CC1CCN(CC2C(=O)O[C@@H]3C[C@@]4(C)CCC[C@H](C)C4=C[C@H]23)CC(C)(C)C1 (stereo not given in full)		inactive: -9.33%
Cc1ccc(Nc2nc(COC(=O)C3CC3)cs2)cc1	inconclusive: 11.6 µM [activator, partial curve]	
S=c1nc2ccccc2c2nc(-c3ccccc3)[nH]n12	inconclusive: 6.51 µM [activator, single point]	
O=C(NC1CC1)C1=C[C@@H](c2c[nH]c3ccccc23)C[C@@H](OCc2ccc(CO)cc2)O1	inconclusive: 14.6 µM [activator, single point]	
CCOC(=O)c1c(C)[nH]c(C(=O)CN2C(=O)NC(C)(CC(C)C)C2=O)c1C (stereo not given)	inconclusive: 18.4 µM [falling, single point]	
CCOc1ccc(NC(=O)CCNC(=O)Cn2ccc3ccccc3c2=O)cc1		inactive: 3.7%
COc1ccc(CNC(=O)CSc2nnnn2C)cc1OC		inactive: -2.34%
CCCCn1c(CNC(=O)c2ccc(OC)cc2)nnc1SCC(=O)Nc1ccccc1		inactive: -23.4%
O=C1C(Cl)=C(NCCN2CCCCC2)C(=O)c2ccccc21	inconclusive: 5.17 µM [falling, partial curve, poor fit]	
O=C1C=CC(=O)c2c(O)c(CO)c(CO)c(O)c21	active: 23.1 µM	
COc1ccccc1NC(=O)Nc1nc(CC(=O)N2CCN(c3ccccc3)CC2)cs1	active: 7.31 µM	
Cc1ccc(CNC(=O)CCC(=O)N2CC(C)Sc3ccccc32)cc1 (stereo not given)	inconclusive: 8.2 µM [falling, partial curve, poor fit]	
CCCC(=O)Nc1nnc(/C=C/c2ccc(OC)cc2)s1		inactive: 5.03%
CC(=O)c1ccccc1-c1csc2ncnc(Sc3nnnn3C)c12	inconclusive: 20.6 µM [falling, single point] and inconclusive: 29.1 µM [falling, single point]	
N#C/C(=C\N1CCN(Cc2ccc3c(c2)OCO3)CC1)c1nc2ccccc2s1	inconclusive: 29.1 µM [falling, single point]	
O=C1/C(=C/c2cccnc2)SC(=S)N1C1CCS(=O)(=O)C1 (stereo not given)	inconclusive: 16.4 µM [falling, partial curve, poor fit]	
NS(=O)(=O)c1ccc(CCNC(=O)c2ccc3ccccc3n2)cc1	inconclusive: 4.11 µM [activator, full curve]	
Cc1csc(NC(=O)c2ccc(Cl)nc2)n1	inconclusive: 5.8 µM [activator, full curve]	
O=C(CCCCCN1C(=O)CCC1=O)NCc1ccccc1		inactive: 0.931%

SMILES	Potency	activity change, negative = inhibition
COc1ccc(CCNC(=O)CCc2cn(C)c3ccccc23)c(OC)c1	inconclusive: 29.1 µM [falling, single point]	
CCSc1nnc(-c2ccc(Cl)cc2Cl)o1	inconclusive: 8.2 µM [activator, partial curve]	
CCC1CCCCN1CCCNC(=O)CCCNC(=O)Cn1cnc2sc3c(c2c1=O)CCCC3 (stereo not given)	inconclusive: 7.31 µM [falling, partial curve, poor fit]	
O=C(CSc1cc(Cl)ccc1Cl)NCCCn1ccnc1	inconclusive: 6.51 µM [falling, partial curve, poor fit]	
CCOC(=O)N/N=C(\C)c1cccs1	inconclusive: 8.2 µM [activator, partial curve]	
O=C(N/N=C/c1ccccn1)c1cc(-c2ccccc2)nc2ccccc12	inconclusive: 29.1 µM [falling, single point]	
Cc1ccc(-c2ccc(SCC(=O)Nc3cc(C)on3)nn2)cc1	inconclusive: 0.0731 µM [falling, full curve, poor fit]	
COC(=O)c1ccc(Cn2c(SCc3cccc(C)c3)nc3ccncc32)cc1	inconclusive: 2.91 µM [activator, partial curve, poor fit]	
Cc1ccc(NC(=O)c2sc3nc(C)nc(N4CCN(c5ccccn5)CC4)c3c2C)c(C)c1	inconclusive: 32.6 µM [falling, partial curve, poor fit]	
CCOC(=O)c1sc2ncn(CC(=O)Nc3ccc(C)cc3C)c(=O)c2c1C		inactive: 5.68% [at 9.27 µM]
O=C(CC1COc2ccccc2O1)NC1CCCCC1 (stereo not given)	inconclusive: 29.1 µM [activator, single point]	
COc1ccc(-c2nc3c(c(=O)[nH]c(=O)n3Cc3ccccc3)n2C)cc1		inactive: 13.6%
COc1ccc(S(=O)(=O)NCCSCc2cccc(C)c2)cc1Br	inconclusive: 16.4 µM [falling, partial curve, poor fit]	
COc1cccc(NC(=O)c2cn(C3CCCCC3)c(=O)c3c2c2ccccc2n3C)c1		inactive: -3.48%
CN(Cc1cnn(C)c1)C(=O)c1sc2cccc(Cl)c2c1Cl	inconclusive: 13 µM [falling, partial curve]	
COc1ccc(-c2csc(NC(=O)Cc3ccccc3)n2)cc1OC	active: 2.59 µM	
COc1ccc(S(=O)(=O)N(CC(=O)N2CCC(C)CC2)c2ccc(C)cc2)cc1		inactive: -2.86%
Cc1cc(C)c2[nH]c(=O)c(C(c3nnnn3CC3CCCO3)N3CCC(C)CC3)cc2c1 (stereo not given)		inactive: 3.67%
CC(=O)Nc1ccc(NC(=O)CN(c2cccc([N+](=O)[O-])c2)S(C)(=O)=O)cc1	inconclusive: 2.31 µM [falling, full curve]	
CCC(C(=O)NCCC(C)C)n1ccc2cc(S(=O)(=O)N3CCCCC3)ccc21 (stereo not given)	active: 13 µM	
CCOC(=O)c1cc(C(=O)NN)c(C)nc1C		inactive: -6.04%
CCOC(=O)c1ccccc1NC(=O)CCc1c(C)nc2ncnn2c1C	inconclusive: 3.66 µM [activator, single point]	

— PubChem BioAssay AID504444 (National Center for Advancing Translational Sciences (NCATS), 2011)
